Literature values as cited in patent US11197828B2, “Solid oral dosage form of lipophilic compounds” (SOLURAL PHARMA APS, priority 2014, dated 2021).

Conditions: cited from earlier work

Question: Which solubility does the source give for `CC(=O)O[C@H]1C(=O)[C@@]2(C)[C@H]([C@H](OC(=O)c3ccccc3)[C@]3(O)C[C@H](OC(=O)[C@H](O)[C@@H](NC(=O)c4ccccc4)c4ccccc4)C(C)=C1C3(C)C)[C@]1(OC(C)=O)CO[C@@H]1C[C@@H]2O` [Paclitaxel] here?
Answer: < 0.05 mg/mL
